From PubChem BioAssay AID493014 (National Center for Advancing Translational Sciences (NCATS), 2011)
The list shows a part of the results. These are further read-outs of the screen, such as a control signal, another cell line or another target. No call is given for them. Compounds called inactive in the main read-out are mostly missing here. Potencies come from curve fits of mixed quality, noted in brackets.

Experiment: qHTS Assay to Find Inhibitors of Chronic Active B-Cell Receptor Signaling
Conditions: ABC-DLBCL IkBa-CBG/CBR reporter, luminescence ratio (green luciferase fused to IkBa over red control in TMD8 lymphoma cells), 4 h
How it was run: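 Compounds up to 46 uM were incubated four hours with TMD8 cells whose green CBG68 luciferase is fused to IkappaBalpha; red CBR luminescence normalised the signal, and concentration-effect curves were fitted to fusion, red and ratio data.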

[1] = measured here: CBR red luminescence, cell number
[2] = measured here: IkBa-CBG green luminescence

Structure (SMILES)	AC50 [1]	AC50 [2]
N#CNC(=Nc1ccc(F)cc1)SCc1ccccc1	11.6 µM [falling, partial curve, poor fit]	–
CN(C)/C=C(/C#N)C(=O)c1cccc(Oc2ccc(C(C)(C)C)cc2)c1	2.59 µM [falling, partial curve]	–
Cc1ccc(NC(=O)CN2C(=O)NC(Cc3ccccc3)C2=O)c(Br)c1 (stereo unspecified)	14.1 µM [rising, single point]	–
CCCCn1c(SCC(=O)N2CCCC2)nc2c1c(=O)n(C)c(=O)n2C	2.24 µM [falling, partial curve, poor fit]	–
O=C1CCCC2=C1C1(CCCC1)N=C(Nc1nc3ccccc3s1)N2	15.8 µM [falling, single point]	–
COC(=O)C1=C(C)N(c2cc(Cl)cc(Cl)c2)C(=O)C1	10 µM [falling, partial curve]	–
Cc1sc(NC(=O)CSc2nnc(-c3ccccc3)o2)c(C#N)c1C	3.55 µM [rising, partial curve, poor fit]	–
Cc1cc2ncn(/N=C/c3ccc4c(c3)OCO4)c2cc1C	5.62 µM [rising, single point]	–
O=C(Nc1ccc(OC(F)(F)F)cc1)c1ccc2ccccc2n1	7.08 µM [rising, partial curve, poor fit]	–
O=C(N/N=C/c1c[nH]c2ccc(Br)cc12)c1ccccn1	17.8 µM [falling, single point]	–
NS(=O)(=O)c1ccc2nc(NC(=O)c3ccncc3)sc2c1	2 µM [falling, full curve]	–
CCC(=O)OCCNc1cc(Sc2nccn2C)c2nonc2c1[N+](=O)[O-]	–	6.51 µM [falling, single point]
C=CCNc1cc(C(F)(F)F)nc(-c2ccccn2)n1	35.5 µM [falling, partial curve, poor fit]	–
COc1cccc(-c2nnc3sc(-c4ccc(C)cc4)nn23)c1	12.6 µM [rising, partial curve, poor fit]	–
Cc1ccc(C(=O)N2c3ccccc3N(Cc3ccccc3)C(=O)C2(C)C)cc1	0.708 µM [falling, full curve, poor fit]	–
Cc1nc2nc(SCc3ccc(F)cc3Cl)nn2c(C)c1Cc1ccccc1	8.91 µM [rising, partial curve, poor fit]	–
CSc1ccc(C(=O)C2CCCN(C(=O)c3nn(C)c(=O)c4ccccc34)C2)cc1 (stereo unspecified)	35.5 µM [rising, single point]	–
COc1cccc(C(=O)NNC2=C(C(=O)C(F)(F)F)CCC2)c1	3.55 µM [falling, partial curve, poor fit]	–
CCCCOc1ccc(C(=O)CCN2CCCCC2)cc1	25.9 µM [falling, partial curve, poor fit]	–
COc1ccccc1-c1nnc(SCC(=O)NC2CCCCC2)o1	29.1 µM [falling, single point]	–
NC(=O)C(=CNc1nc(-c2ccc(Cl)c(Cl)c2)cs1)C(N)=O	5.62 µM [falling, single point]	–
COC(=O)C1=CN(c2ccc(F)cc2)C=C(C(=O)OC)C1c1ccc(O)cc1	6.31 µM [rising, single point]	–

Structure (SMILES)	AC50 [1]	AC50 [2]
Cc1oc(CC(C)C)c(CN)c1C(=O)O	29.1 µM [rising, single point]	–
CCCCN(C(=O)CSc1cc(C)c2ccc(OC)cc2n1)c1c(N)n(Cc2ccccc2)c(=O)[nH]c1=O	32.6 µM [falling, single point]	–
CCCn1c(N)c(C(=O)CN2CCN(S(=O)(=O)c3cccc(Cl)c3)CC2)c(=O)[nH]c1=O	29.1 µM [falling, single point]	–
C[C@@H]1C=C(C(=O)NCc2nc3ccccc3[nH]2)O[C@H](OCc2ccc(CO)cc2)C1	10 µM [falling, partial curve, poor fit]	–
COc1ccc(NC(=O)COc2ccc(CNCCCN3CCOCC3)cc2OC)cc1	25.1 µM [falling, single point]	–
COCCNC(=O)Cc1c(C)c2cc3c(cc2oc1=O)OC(C)(C)CC3	3.98 µM [rising, single point]	–
COc1cccc(NC(=O)CSc2nc3ncc(Br)cc3[nH]2)c1	10 µM [falling, partial curve]	–
C=CCc1c(C)nc2cc(-c3ccccc3)[nH]n2c1=O	35.5 µM [falling, single point]	–
CC(=O)c1ccc(Cc2cnc(N)s2)cc1	29.1 µM [rising, single point]	–
CN(C)/C=N/c1c(C#N)cnn1-c1nc2ccccc2s1	6.31 µM [rising, partial curve, poor fit]	–
COc1c(/C=C2\SC(=Nc3ccccc3Cl)NC2=O)cccc1[N+](=O)[O-]	11.2 µM [falling, partial curve, poor fit]	–
Cc1nn(C)c(C)c1NS(=O)(=O)c1ccccc1	29.1 µM [rising, single point]	–
CC(NC(c1ccccc1)c1ccccc1)C(=O)N1CCCc2ccccc21 (stereo unspecified)	23.1 µM [falling, partial curve, poor fit]	–
Cc1nn2cc(-c3cccc(Cl)c3)cnc2c1Br	0.398 µM [rising, full curve, poor fit]	–
O=C(CCc1nnc(C2(c3ccc(Cl)cc3)CCC2)o1)NC1CC1	0.112 µM [rising, full curve, poor fit]	–
CCOC(=O)C1=C(COC(=O)/C=C/c2ccc(SC)cc2)NC(=O)NC1C (stereo unspecified)	0.082 µM [falling, partial curve, poor fit]	–
COc1cc(OC)cc(C(=O)NCC(=O)OCC(=O)c2cc(OC)ccc2OC)c1	0.146 µM [rising, full curve, poor fit]	–
c1ccn2cc(-c3ccc4c(c3)OCCO4)nc2c1	12.6 µM [falling, partial curve]	–
Cc1ccc(-c2noc(CSc3nnc(-c4ccncc4)n3-c3ccc(F)cc3)n2)cc1	29.1 µM [rising, single point]	–
Cc1[nH]c2ccccc2c1/C=N/Nc1ccccn1	14.1 µM [falling, single point]	–
C=CCNC(=S)N/N=C/c1ccc(C)cc1C	14.1 µM [falling, partial curve, poor fit]	15.8 µM [falling, partial curve]
Nc1c(C(=O)c2cccs2)sc2nsc(SCCN3CCCCC3)c12	2.82 µM [falling, partial curve, poor fit]	–

5 compounds drawn at random from those above:
Structure (SMILES)	AC50 [1]	AC50 [2]
Cc1cc2ncn(/N=C/c3ccc4c(c3)OCO4)c2cc1C	5.62 µM [rising, single point]	–
C[C@@H]1C=C(C(=O)NCc2nc3ccccc3[nH]2)O[C@H](OCc2ccc(CO)cc2)C1	10 µM [falling, partial curve, poor fit]	–
COc1cccc(-c2nnc3sc(-c4ccc(C)cc4)nn23)c1	12.6 µM [rising, partial curve, poor fit]	–
C=CCNC(=S)N/N=C/c1ccc(C)cc1C	14.1 µM [falling, partial curve, poor fit]	15.8 µM [falling, partial curve]
Nc1c(C(=O)c2cccs2)sc2nsc(SCCN3CCCCC3)c12	2.82 µM [falling, partial curve, poor fit]	–

The results go on.

Structure (SMILES)	AC50 [1]	AC50 [2]
O=c1c(Cc2ccc(F)cc2)c(O)ccn1C1CCCCC1	1.3 µM [rising, partial curve]	–
O=C(CCN1C(=O)S/C(=C\c2ccccc2)C1=O)Nc1ccc(S(=O)(=O)Nc2nccs2)cc1	14.1 µM [falling, single point]	–
Nc1nonc1C(=O)N/N=C/c1cc(Br)ccc1O	4.47 µM [rising, single point]	–
C=CCC[C@@H](Cc1ccc(F)cc1)C(=O)OC[C@@H](NC(=O)[C@@H](CC=C)CC(=O)N[C@H](CO)Cc1ccccc1)C(C)(C)C	14.6 µM [falling, partial curve]	–
CCOCCc1nn2c(=O)cc(CSCC(=O)Nc3ccc(OC)cc3)nc2s1	3.16 µM [rising, partial curve, poor fit]	–
O=C(Nc1ccccc1CC[N+](=O)[O-])N1CCN(c2ccccc2)CC1	11.2 µM [falling, partial curve, poor fit]	–
N/C(=N\OC(=O)COc1ccc(Cl)cc1Br)c1cccnc1	1.41 µM [rising, full curve, poor fit]	–
COc1cc(C(=S)N2CCN(c3ccccc3Cl)CC2)cc(O)c1O	11.2 µM [falling, partial curve, poor fit]	–
CCCOc1ccc(/C=C/C(=O)N2CCOCC2)cc1	1.58 µM [rising, full curve]	–
COc1cc(OC)cc(C(=O)Nc2cc(C)on2)c1	22.4 µM [falling, single point]	–
Cc1cccc(C(=O)OCC(=O)NCc2ccc3c(c2)OCO3)c1C	5.8 µM [falling, single point]	–
CO/N=C/CC(=O)c1cnc(-c2ccccc2)s1	15.8 µM [rising, single point]	–
O=C(CSCc1cccc(F)c1)N1CCN(c2ccccc2)CC1	1.46 µM [rising, full curve, poor fit]	–
COC(=O)c1sc(NC(=O)c2oc3ccccc3c2C)nc1C	10.3 µM [falling, partial curve, poor fit]	–
Cc1[nH][nH]c(=O)c1C(c1ccc(-c2ccc(Cl)c(Cl)c2)o1)c1c(C)[nH][nH]c1=O	23.1 µM [falling, single point]	–
O=C(OCC(=O)N1CCCCC1)c1c[nH]c2ccccc12	9.2 µM [falling, partial curve]	–
CCOC(=O)/C=C/C(=O)Nc1ccc(-c2nnc3n2CCCCC3)cc1	11.2 µM [falling, partial curve]	–
CCC(=O)NC(Nc1cccc(C)n1)(C(F)(F)F)C(F)(F)F	29.1 µM [falling, single point]	–
N#Cc1cnc(SCC(=O)NNC(=O)COc2cccc3ccccc23)nc1N	18.4 µM [rising, partial curve, poor fit]	–
O=C(Nc1nnc(C2CC2)s1)C1COc2ccccc2O1 (stereo unspecified)	11.2 µM [falling, single point]	–
Cc1cccc(-n2nnnc2SCC(=O)c2cc(C)n(Cc3ccco3)c2C)c1	35.5 µM [rising, single point]	–
